Data as given in the supplement of paper PMC12823440, “Inhibitors supercharge kinase turnover through native proteolytic circuits” (Nature, 2025).
Counter-ions that a name gives are not always drawn. This is one part of the list. The calls rarely recur for the same compound in another form.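 In K562 cells expressing nanoluciferase-fused kinases, luminescence was recorded at 4 h intervals between 2 and 18 h, normalized as percent of control with DMSO at 100% and a positive control at 0%. A significant (2 sigma) signal drop marks a time point as decreased. The authors' rule for a hit is not shown and takes in more than the number of time points.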

Amino acid sequences for entries named in this document (tags omitted). A change or cut given only in a name is not applied to a line headed by its entry.
UniProt P07947, whole entry, looked up: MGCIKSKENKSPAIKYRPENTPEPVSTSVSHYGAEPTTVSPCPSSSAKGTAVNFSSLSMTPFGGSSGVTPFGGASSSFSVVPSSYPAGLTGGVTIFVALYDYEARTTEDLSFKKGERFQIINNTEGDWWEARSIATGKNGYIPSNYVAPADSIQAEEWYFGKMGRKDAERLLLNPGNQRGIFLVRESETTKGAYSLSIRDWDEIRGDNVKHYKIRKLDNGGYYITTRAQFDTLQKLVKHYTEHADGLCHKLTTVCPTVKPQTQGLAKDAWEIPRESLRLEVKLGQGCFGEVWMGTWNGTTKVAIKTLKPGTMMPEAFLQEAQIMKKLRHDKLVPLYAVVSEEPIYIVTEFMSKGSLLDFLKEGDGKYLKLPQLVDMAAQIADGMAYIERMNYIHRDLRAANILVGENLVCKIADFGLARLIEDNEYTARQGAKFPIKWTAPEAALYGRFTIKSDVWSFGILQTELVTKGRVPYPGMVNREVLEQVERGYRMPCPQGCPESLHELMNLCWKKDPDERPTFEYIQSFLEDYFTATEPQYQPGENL
UniProt P43403: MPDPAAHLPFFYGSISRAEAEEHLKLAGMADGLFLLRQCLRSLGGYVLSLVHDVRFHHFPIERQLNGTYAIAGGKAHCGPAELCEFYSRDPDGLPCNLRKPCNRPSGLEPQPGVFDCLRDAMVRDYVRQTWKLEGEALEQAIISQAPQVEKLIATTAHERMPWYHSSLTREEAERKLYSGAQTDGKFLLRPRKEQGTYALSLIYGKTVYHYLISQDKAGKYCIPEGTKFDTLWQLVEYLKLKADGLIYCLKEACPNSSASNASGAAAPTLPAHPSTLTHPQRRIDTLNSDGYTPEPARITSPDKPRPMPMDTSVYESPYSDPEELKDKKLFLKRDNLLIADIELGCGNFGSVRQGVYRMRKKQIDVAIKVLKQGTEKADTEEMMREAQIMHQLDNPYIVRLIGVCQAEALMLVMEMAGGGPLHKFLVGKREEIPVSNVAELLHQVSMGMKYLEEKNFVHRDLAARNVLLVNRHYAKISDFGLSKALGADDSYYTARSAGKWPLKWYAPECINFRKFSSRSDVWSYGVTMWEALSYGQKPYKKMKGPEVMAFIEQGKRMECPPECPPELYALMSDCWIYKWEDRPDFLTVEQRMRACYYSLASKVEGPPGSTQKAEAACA
UniProt P11802: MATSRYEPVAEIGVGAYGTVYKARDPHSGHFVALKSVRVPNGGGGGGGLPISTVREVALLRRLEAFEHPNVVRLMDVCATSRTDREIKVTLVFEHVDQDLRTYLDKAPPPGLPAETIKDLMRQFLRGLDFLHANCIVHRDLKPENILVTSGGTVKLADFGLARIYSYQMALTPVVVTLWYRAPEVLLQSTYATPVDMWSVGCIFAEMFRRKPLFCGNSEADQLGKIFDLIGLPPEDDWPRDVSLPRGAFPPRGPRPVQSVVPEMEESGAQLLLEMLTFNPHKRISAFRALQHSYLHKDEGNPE
UniProt P50613: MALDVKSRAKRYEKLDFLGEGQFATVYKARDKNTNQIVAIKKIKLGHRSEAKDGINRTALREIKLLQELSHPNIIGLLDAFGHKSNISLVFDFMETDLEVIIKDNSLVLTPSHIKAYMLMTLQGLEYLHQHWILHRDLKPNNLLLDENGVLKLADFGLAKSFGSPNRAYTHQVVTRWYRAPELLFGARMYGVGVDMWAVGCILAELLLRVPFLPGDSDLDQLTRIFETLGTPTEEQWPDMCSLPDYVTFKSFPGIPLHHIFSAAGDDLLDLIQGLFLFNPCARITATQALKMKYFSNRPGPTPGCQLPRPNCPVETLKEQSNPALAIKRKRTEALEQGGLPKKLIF
UniProt P50750, whole entry: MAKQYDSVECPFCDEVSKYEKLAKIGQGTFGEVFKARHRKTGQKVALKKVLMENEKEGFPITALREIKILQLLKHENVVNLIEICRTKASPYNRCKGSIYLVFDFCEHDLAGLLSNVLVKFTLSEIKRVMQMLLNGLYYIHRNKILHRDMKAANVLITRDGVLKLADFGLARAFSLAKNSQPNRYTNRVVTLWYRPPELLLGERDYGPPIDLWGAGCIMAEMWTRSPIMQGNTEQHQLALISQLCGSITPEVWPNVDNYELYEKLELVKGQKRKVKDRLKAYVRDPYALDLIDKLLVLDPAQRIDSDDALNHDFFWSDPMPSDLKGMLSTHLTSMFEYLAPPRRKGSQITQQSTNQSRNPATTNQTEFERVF

Legend:
Settings in all cases: K562; 2-18 h
[1] = biological target: YES1 (UniProt P07947); assay: number of time points (of 5) at which kinase-Nluc abundance scored as decreased, DMSO-normalised (count); higher = more persistent destabilization
[2] = biological target: ZAK (UniProt Q9NYL2); assay: as above
[3] = biological target: ZAP70 (UniProt P43403); assay: as above
[4] = biological target: CDK4 (UniProt P11802); assay: number of time points (of 4; 2 h point missing) at which kinase-Nluc abundance scored as decreased, DMSO-normalised (count); higher = more persistent destabilization
[5] = biological target: CDK7 (UniProt P50613); assay: as above
[6] = biological target: CDK9 (UniProt P50750); assay: as above

Structure (SMILES)	number of time points [1]	number of time points [2]	number of time points [3]	number of time points [4]	number of time points [5]	number of time points [6]
O=S(=O)(c1cccc2cnccc12)N1CCNCC1 (10 µM)	0	0	0	0	0	0
COc1c(O)cc2oc3cc(O)c(CC=C(C)C)c(O)c3c(=O)c2c1CCC(C)(C)O [Garcinone D] (2.5 µM)	0	0	0	0	0	0
CNC(=O)c1ccc(-c2cnc3cnc(-c4ccccc4)cn23)cc1 (10 µM)	0	0	0	0	0	0
c1cc(-c2cnn3cc(-c4ccc(N5CCNCC5)cc4)cnc23)c2cccnc2c1 (2.5 µM)	0	0	0	0	1	0
CC(C)c1ccc(CC(=O)N2CCN(c3ccc(C#N)nn3)CC2)cc1 (10 µM)	0	0	0	0	0	0
O=c1cc(-c2ccc(O)c(O)c2O)oc2ccccc12 (10 µM)	0	0	0	0	0	0
C[C@H]1[C@H](OC(=O)CCC(=O)O)O[C@@H]2O[C@@]3(C)CC[C@H]4[C@H](C)CC[C@@H]1[C@@]24OO3 [Artesunate] (2.5 µM)	1	0	0	0	1	0
COc1cc(-c2cc(-c3cc(OC)c(OC)c(OC)c3)cc(C(F)P(=O)(OCOC(=O)C(C)(C)C)OCOC(=O)C(C)(C)C)c2)cc(OC)c1OC (stereo unspecified) [Stafia-1-dipivaloyloxymethyl ester] (2.5 µM)	0	0	0	0	0	0
CC(C)N(C)c1nc2cc(C(=O)O)ccc2nc1-c1ccc(F)cc1 (10 µM)	0	0	0	0	0	0
Cc1cccc(-c2[nH]ncc2-c2ccc3ncccc3n2)n1 (10 µM)	0	0	0	0	0	0
Nc1ncc(-c2ccc(C(=O)N3CCNCC3)cc2)nc1-c1ccc(C(F)(F)F)cc1 (10 µM)	0	0	0	0	0	0
COc1ncc(Nc2ncc([C@@H](C)N3CCN(S(C)(=O)=O)CC3)cc2-c2nc(C)nc(N)n2)cc1F (10 µM)	0	0	0	0	0	0
CCOc1ccccc1C=C1C(=O)Nc2ccccc21 (10 µM)	0	0	0	0	0	0
C=CC(=O)N1CCC[C@@H](n2nc(C(=O)Nc3ccc(CC(=O)N(C)C)c(C)c3C)c3c(N)ncnc32)C1 (10 µM)	0	0	0	0	0	0
CC1=C(C(=O)Nc2ccc3[nH]ncc3c2)C(c2ccc(F)cc2)NC(=O)N1 (stereo unspecified) (10 µM)	0	0	0	0	0	0
C=CC(=O)N1CCC(Oc2cc3c(Nc4ccc(Cl)c(Cl)c4F)ncnc3cc2OC)CC1 [Poziotinib] (2.5 µM)	0	0	0	0	0	0
COc1c(C)c(C(=O)c2ccc(N)c(C(=O)O)c2)n2ccccc12 (10 µM)	0	0	0	0	0	0
N#C/C(=C\c1ccc2oc(=O)[nH]c2c1)C(=O)c1ccc(O)c(O)c1 (10 µM)	0	0	0	0	0	0
COc1ccc(-n2c(C)c([N+](=O)[O-])c3ccc(O)cc32)cc1 (10 µM)	0	0	0	0	0	0
CCCCNC(=N)NC(=N)N [Buformin (hydrochloride)] (2.5 µM)	0	0	0	0	0	0
CN1CC[C@H](c2c(O)cc(O)c3c(=O)cc(-c4ccc(C(F)(F)F)cc4Cl)oc23)[C@H]1CO [(2S,3R)-Voruciclib (hydrochloride)] (2.5 µM)	0	0	0	0	1	0
NCCCCCCNS(=O)(=O)c1cccc2c(Cl)cccc12 [W-7 (hydrochloride)] (10 µM)	0	0	0	0	0	0
Cc1cc(C(C)Nc2ccccc2)c2nc(N3CCOCC3)cc(=O)n2c1 (stereo unspecified) (10 µM)	0	0	0	0	0	0

Three of the compounds above, bar-delimited.
Structure (SMILES) | number of time points [1] | number of time points [2] | number of time points [3] | number of time points [4] | number of time points [5] | number of time points [6]
c1cc(-c2cnn3cc(-c4ccc(N5CCNCC5)cc4)cnc23)c2cccnc2c1 (2.5 µM) | 0 | 0 | 0 | 0 | 1 | 0
COc1cc(-c2cc(-c3cc(OC)c(OC)c(OC)c3)cc(C(F)P(=O)(OCOC(=O)C(C)(C)C)OCOC(=O)C(C)(C)C)c2)cc(OC)c1OC (stereo unspecified) [Stafia-1-dipivaloyloxymethyl ester] (2.5 µM) | 0 | 0 | 0 | 0 | 0 | 0
NCCCCCCNS(=O)(=O)c1cccc2c(Cl)cccc12 [W-7 (hydrochloride)] (10 µM) | 0 | 0 | 0 | 0 | 0 | 0

Further compounds:

Structure (SMILES)	number of time points [1]	number of time points [2]	number of time points [3]	number of time points [4]	number of time points [5]	number of time points [6]
Nc1cccc(S(=O)(=O)N2CCCN(S(=O)(=O)c3ccc4c(c3)OCCO4)CC2)c1 (10 µM)	0	0	0	0	0	0
N#Cc1ccc(-c2c(-c3ncn[nH]3)sc(N3CCOCC3)c2C#N)c(F)c1 (10 µM)	0	0	0	0	1	0
Cn1ncc(Cl)c1-c1cc(C(=O)N[C@H](CN)Cc2ccc(F)c(F)c2)sc1Cl (10 µM)	0	0	0	0	0	0
NS(=O)(=O)c1ccc(N2N=C(c3ccccc3)CC2c2ccccc2)cc1 (stereo unspecified) (10 µM)	0	0	0	0	0	0
Cc1cc2ncc(-c3ccccc3)nc2cc1C (10 µM)	0	0	0	0	0	0
Nc1[nH]c(=O)nc2c1ncn2[C@@H]1O[C@H](CO)[C@@H](O)[C@H]1O [Crotonoside] (10 µM)	0	0	0	0	0	0
CN(C)Cc1cccc(N=C(c2ccccc2)c2c(O)[nH]c3cc(C(=O)N(C)C)ccc23)c1 (10 µM)	0	0	0	0	0	0
CN1CCN(CCCNc2ncc(Cl)c(-c3cc4c(C(=O)NC5CC5)cccc4s3)n2)CC1 (10 µM)	0	0	0	0	0	0
CSc1ccc(CN2CCCC(Nc3ccc4[nH]ncc4c3)C2)cc1 (stereo unspecified) [Rho-Kinase-IN-1] (10 µM)	0	0	0	0	0	0
CN(C)C(=O)c1ccc(S(=O)(=O)c2ccc(NC(=O)[C@@](C)(O)C(F)(F)F)c(Cl)c2)cc1 (10 µM)	0	0	0	0	0	0
O=C(O)c1ccccc1Nc1cccc(C(F)(F)F)c1 [Flufenamic acid] (10 µM)	0	0	0	0	0	4
COc1ccc2c(Oc3ccc(NC(=O)c4c(C)n(CC(C)(C)O)n(-c5ccccc5)c4=O)cc3F)ccnc2c1 (2.5 µM)	0	0	0	0	2	0
CC[C@@H]1[C@H](F)C(=O)N[C@@H]1COc1nccc2cc(C(N)=O)c(OC)cc12 (10 µM)	0	0	0	0	0	0
CC(C)c1cc(/C=C(\C#N)C(N)=O)cc(C(C)C)c1O (10 µM)	0	0	0	0	0	0
C[C@@H]1CCc2ncc(F)cc2[C@H]2CCCN2c2ccn3ncc(c3n2)C(=O)N1 [Selitrectinib] (10 µM)	0	0	0	0	0	0
Cc1cc2cc(Oc3ccnc(Nc4cccc(CS(=O)(=O)NCCN(C)C)c4)n3)ccc2[nH]1 [Sulfatinib] (10 µM)	0	0	0	0	2	0
C=C[C@H]1[C@H](O[C@@H]2O[C@H](CO)[C@@H](O)[C@H](O)[C@H]2OC(=O)c2c(O)cc(O)cc2-c2cccc(O)c2)OC=C2C(=O)OCC[C@H]21 [Amarogentin] (10 µM)	0	0	0	0	0	0
OCCN(CCO)c1ccc(C(c2ccc(Cl)cc2)c2ccc(N(CCO)CCO)cc2)cc1 (10 µM)	2	2	0	0	3	4
O=C(CCCCCn1cc(Nc2ncc(Cl)c(Nc3ccc(Cl)cc3)n2)cn1)NO (2.5 µM)	0	0	0	0	0	0
O=C(Nc1ccc(Cl)cc1)C1CCCN(C(=O)c2cccc(-c3ccco3)c2)C1 (stereo unspecified) (2.5 µM)	0	0	0	0	0	0
CN(CC(=O)N(Cc1ccc(C2CCCCC2)cc1)c1ccc(C(=O)O)c(O)c1)S(=O)(=O)c1c(F)c(F)c(F)c(F)c1F (2.5 µM)	0	0	0	0	0	0
CC(C)(O)[C@@H]1CC[C@](C)([C@H]2[C@@H](O)C[C@@]3(C)[C@@H]4C[C@H](O[C@@H]5O[C@H](CO)[C@@H](O)[C@H](O)[C@H]5O)[C@H]5C(C)(C)[C@@H](O[C@@H]6OC[C@@H](O)[C@H](O)[C@H]6O[C@@H]6O[C@H](CO)[C@@H](O)[C@H](O)[C@H]6O)CC[C@@]56C[C@@]46CC[C@]23C)O1 [Astragaloside VI] (10 µM)	0	0	0	0	0	0
Nc1cc(C(F)F)c(-c2nc(N3C4CCC3COC4)nc(N3C4CCC3COC4)n2)cn1 (2.5 µM)	0	0	0	0	0	0
